# Percent effect of library compounds

The values are deposited in ChEMBL (CHEMBL3988442, “University of Dundee, Small-Polar-MMV Screening Library” (2021)).

Values are the deposited “Percent Effect”, in %.
The record does not define 0% and 100%; most values in the screen are far below 50% and negative numbers occur (in some assays of this library far below -100).
Compounds were drawn at random from those tested, without regard to their results.

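Whole-parasite assay of Trypanosoma brucei over 72 hours; the read-out is not stated. Tested at 10 µM. Direction is inferred from retests: higher values go with stronger inhibition. Values scatter widely below zero; nearly all retest evidence comes from the higher of the two concentrations used. About 2,700 compounds were tested under these conditions; 0.51% (about 14) showed 50% or more at least once.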

- Cc1ccc(NC2CCN(C(=O)Cc3c(C)noc3C)CC2)nn1 | -84.92%
- Cc1cccc(N2CCN(C(=O)NC(C)c3nncn3C)CC2)c1 (stereo not given) | -19.29%
- O=C(NCCc1ccn(-c2ccccc2)n1)N1CCCC(CO)C1 (stereo not given) | 104%
- CC(NC(=O)NCCn1ccnc1)c1ccc2c(c1)OCCCO2 (stereo not given) | -60.05%
- Cc1cnn(CCC(=O)N2CCCC(c3noc(C)n3)C2)c1 (stereo not given) | -61.68%
- CC(=O)NCC1CCN(c2cc(C)nc(-c3ccncc3)n2)CC1 | -42.73%
- O=C1C(NCc2nnc3n2CCCC3)CCCN1c1ccccc1 (stereo not given) | -55.46%
- O=C(c1ccc(O)nc1)N1CCC(Nc2cccnn2)CC1 | -49.19%
- COC(=O)CN1CCCN(C(=O)CCOc2cccc(C)c2C)CC1 | -1.518%
- CC(=O)Nc1nc(C(=O)NCc2ccnc(N3CCCC3)c2)cs1 | -13.6%
- CCCc1nnc(NC(=O)NC(C)Cn2cccn2)s1 (stereo not given) | -31.23%
- Cn1ccc(CN2CCC(Cc3ccccc3)CC2)cc1=O | -41.77%
- Cc1ccc(-c2nc(CN3CCn4c(nnc4C4CC4)C3)co2)c(C)c1 | -20.22%
- Cc1cccc(N2CCN(C(=O)NC(C)c3nncn3C)CC2)c1C (stereo not given) | -16.31%
- CCOC(=O)c1ccc(S(=O)(=O)NCc2cccnc2N(C)C)cc1 | -42.9%
- CNc1cc(N2CCCC2CNCc2cscn2)ncn1 (stereo not given) | -47.16%
- CC(NC(=O)NCc1ccccc1Cl)c1ccccn1 (stereo not given) | -29.44%
- COc1ccc(-c2nnc(CN3CCCC3Cn3cncn3)o2)cc1 (stereo not given) | -48.09%
- O=C(Nc1ccccc1F)C1=NN(c2ccccc2)C(=O)CN1 | -9.284%
- COc1c(C)cnc(CN2CCC(N(C)C(=O)C(C)OC)CC2)c1C (stereo not given) | -29.96%
- Cc1cc(C)n(CC2CN(Cc3ccccn3)CCO2)n1 (stereo not given) | -53.1%
- CCCc1nc(CN2CCN(C(C)c3nc(C4CC4)no3)CC2)no1 (stereo not given) | -34.35%
- O=C(c1cc(F)ccc1F)C1CCN(C(=O)c2ccco2)CC1 | -50.49%
- Cc1c(C(=O)N2CCCC(n3cccn3)C2)nnn1-c1ccccc1 (stereo not given) | -41.06%
- Cc1cc(NC(=O)CN2CCC(N(C)Cc3ncc(C)o3)C2)n(C)n1 (stereo not given) | -65.13%
- Cc1nc(C)n(CC2CCCCN2CCOc2cccc(C#N)c2)n1 (stereo not given) | -28.09%
- Cc1cn2nc(N3CCN(Cc4c(C)noc4C)CC3)sc2n1 | -47.13%
- CN(Cc1cnn(C)c1)C(=O)CN1CCCC(Cn2cncn2)C1 (stereo not given) | -7.814%

Some entries from above, unchanged:

compound,Percent Effect
CC(NC(=O)NCc1ccccc1Cl)c1ccccn1 (stereo not given),-29.44%
Cc1cc(NC(=O)CN2CCC(N(C)Cc3ncc(C)o3)C2)n(C)n1 (stereo not given),-65.13%